# Measured data: PubChem BioAssay AID1508588 (Peter MacCallum Cancer Centre, 2020)
# Aim: 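Which gene losses make BRAF-mutant melanoma cells more responsive to vemurafenib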 (primary screen)
# System: human WM266.4 melanoma cells (BRAF V600 mutant)
# Reagents: siRNA pool against human genes, 40 nM
# Duration: 96 h from transfection to read-out
# Challenge: vemurafenib 300 nM (about IC25), added 48 h after transfection, for 48 h; comparison arm got DMSO vehicle only
# Measurement: 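Cell gain (DAPI nuclei at end minus before drug, mean of two replicates) and medium lactate by absorbance per cell, both as ratio to non-targeting siRNA, also grouped into fold-change classes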
# Reading the numbers: cell gain with vemurafenib: higher = more cell gain than with non-targeting siRNA; lactate per cell with vemurafenib: higher = more lactate made per cell
# Active means: 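Enhancement is called by pairing each knock-down's vehicle-arm and drug-arm fold-change classes for viability or glycolysis; which class combinations qualify is not given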
# Calls: active = enhances vemurafenib effect; inactive = no enhancement seen
# In all, the deposit lists about 18,000 reagents; this is an unselected part. Of all reagents, 790 (4.4%) are marked active. 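Calls rest on a combination of fold-change classes in drug and vehicle arms, not all shown here.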 Entries without a mark were called inactive. The numbers tell different reagents against one gene apart.
gene knocked down,pool no.,cell gain with vemurafenib,lactate per cell with vemurafenib
TMEM89 (transmembrane protein 89),1,0.02,0.73
FAM110B (family with sequence similarity 110 member B),1,0.64,0.31
KCNH3 (potassium voltage-gated channel subfamily H member 3),1,1.21,0.46
"HSFX1 (heat shock transcription factor family, X-linked 1)",1,0.17,0.78
CEACAM19 (CEA cell adhesion molecule 19),1,0.59,0.94
ZNF658 (zinc finger protein 658),1,0.54,0.98
MEF2C (myocyte enhancer factor 2C),1,0.99,1.27
"OXSM (3-oxoacyl-ACP synthase, mitochondrial)",1,0.29,1.33
CATSPERG (catsper channel auxiliary subunit gamma),1,0.41,1.06
OSBPL9 (oxysterol binding protein like 9),1,0.68 (active),0.48
OR2W5,1,1.29,0.84
L3MBTL4 (L3MBTL histone methyl-lysine binding protein 4),1,0.87,0.45
ADGRG1 (adhesion G protein-coupled receptor G1),1,0.72,0.92
ETV7 (ETS variant transcription factor 7),1,0.83,0.63
CDC73 (cell division cycle 73),1,0.69,1.06
OR5D13 (olfactory receptor family 5 subfamily D member 13),1,0.74,0.77
STARD5 (StAR related lipid transfer domain containing 5),1,0.26 (active),0.34
PTPRO (protein tyrosine phosphatase receptor type O),1,0.94,0.93
TTC39B (tetratricopeptide repeat domain 39B),1,0.52,0.68
FAM209A (family with sequence similarity 209 member A),1,0.67,0.44
IPO4 (importin 4),1,0.51,1.53
SNX8 (sorting nexin 8),1,0.71,0.52
"FOSL1 (FOS like 1, AP-1 transcription factor subunit)",1,1.03,0.88
"GFER (growth factor, augmenter of liver regeneration)",1,0.11,2.75
SCAF8 (SR-related CTD associated factor 8),1,1.02,0.47
MICAL2,1,0.4,1.46
MICAL2,2,0.75,0.22
NKIRAS1 (NFKB inhibitor interacting Ras like 1),1,0.66,0.91

The list goes on (7 carried over from the part before).
gene knocked down,pool no.,cell gain with vemurafenib,lactate per cell with vemurafenib
SNX8 (sorting nexin 8),1,0.71,0.52
"FOSL1 (FOS like 1, AP-1 transcription factor subunit)",1,1.03,0.88
"GFER (growth factor, augmenter of liver regeneration)",1,0.11,2.75
SCAF8 (SR-related CTD associated factor 8),1,1.02,0.47
MICAL2,1,0.4,1.46
MICAL2,2,0.75,0.22
NKIRAS1 (NFKB inhibitor interacting Ras like 1),1,0.66,0.91
FBXL20 (F-box and leucine rich repeat protein 20),1,0.58,0.91
MCM8,1,0.58,1.16
LAT2 (linker for activation of T cells family member 2),1,0.04,1.19
USP33 (ubiquitin specific peptidase 33),1,0.72,0.48
FOXE1 (forkhead box E1),1,1.05,0.64
FGF10 (fibroblast growth factor 10),1,0.72,0.52
NOVA2 (NOVA alternative splicing regulator 2),1,0.64,1.05
ZNF775 (zinc finger protein 775),1,0.43,1.57
SLC37A2,1,0.58,1.01
SH3TC2 (SH3 domain and tetratricopeptide repeats 2),1,0.15,2.17
TAF4 (TATA-box binding protein associated factor 4),1,0.2,1.73
GART,1,0.25,1.87
"BRAF (B-Raf proto-oncogene, serine/threonine kinase)",1,-0.28,0.12
PLCZ1 (phospholipase C zeta 1),1,0.98,0.94
CPN2 (carboxypeptidase N subunit 2),1,0.1,1.03
C1QA (complement C1q A chain),1,0.05,0.66
NXF3 (nuclear RNA export factor 3),1,0.03,2.3
SLC43A3,1,0.88,0.82
PCGF1 (polycomb group ring finger 1),1,0.89,1
RAD18 (RAD18 E3 ubiquitin protein ligase),1,0.96,0.82
RNF126 (ring finger protein 126),1,0.64,1.33
KCTD8 (potassium channel tetramerization domain containing 8),1,0.28 (active),0.24
ZNF100 (zinc finger protein 100),1,0.24,2.09
OR7A17 (olfactory receptor family 7 subfamily A member 17),1,0.75,0.74
ZNF530 (zinc finger protein 530),1,0.69,1.04
"TLE4 (TLE family member 4, transcriptional corepressor)",1,0.36,1.64
STK36 (serine/threonine kinase 36),1,0.47,1.02
CD1A (CD1a molecule),1,0.96 (active),0.48
CLDN6 (claudin 6),1,0.46,1.84
TNKS2 (tankyrase 2),1,0.9,0.7
GTPBP8 (GTP binding protein 8),1,0.25,0.93
SGO1 (shugoshin 1),1,0.03,1.6
COL21A1 (collagen type XXI alpha 1 chain),1,0.73,1.46
LDLRAP1 (low density lipoprotein receptor adaptor protein 1),1,0.97,0.94
STRAP (serine/threonine kinase receptor associated protein),1,0.76,0.37
MTCP1 (mature T cell proliferation 1),1,0.23,1.62
OR7G3 (olfactory receptor family 7 subfamily G member 3),1,0.23,0.84
HSPG2 (heparan sulfate proteoglycan 2),1,0.91,0.55
GATA3 (GATA binding protein 3),1,0.12,2
NLRP2 (NLR family pyrin domain containing 2),1,0.5,1.46
GLCE (glucuronic acid epimerase),1,0.62,0.64
"ALKBH8 (alkB homolog 8, tRNA methyltransferase)",1,0.85,0.64
"PCDHGA4 (protocadherin gamma subfamily A, 4)",1,0.72,0.5
EIF3L (eukaryotic translation initiation factor 3 subunit L),1,0.43,0.87
ZNF274 (zinc finger protein 274),1,0.5,1.42
CXADR (CXADR cell adhesion molecule),1,0.9,0.69
PNMA1 (PNMA family member 1),1,0.74,1.07
CTSK (cathepsin K),1,0.16,1.57
ITGB1 (integrin subunit beta 1),1,0.91,0.5
RBMY1B (RNA binding motif protein Y-linked family 1 member B),1,1.12,0.62
MCTP1 (multiple C2 and transmembrane domain containing 1),1,0.84,0.84
ZFYVE27 (zinc finger FYVE-type containing 27),1,0.61,0.8
TXNL1 (thioredoxin like 1),1,0.87 (active),0.66
ITPRIPL1 (ITPRIP like 1),1,0.57,0.99
C17orf75 (chromosome 17 open reading frame 75),1,0.66 (active),0.63
OR56A1 (olfactory receptor family 56 subfamily A member 1),1,0.16,2.94
